The target in one assay is integrin αVβ3 (UniProt P06756). As to the kind of experiment: target identification; method not described.
The target in a further assay is integrin α5β1 (UniProt P08648). As to the kind of experiment: target identification; method not described.

The chains behind the UniProt entries cited, without tags or fusion partners. Where a name states a change or a piece, a line headed by the entry shows the natural chain unless it says otherwise.
UniProt P06756: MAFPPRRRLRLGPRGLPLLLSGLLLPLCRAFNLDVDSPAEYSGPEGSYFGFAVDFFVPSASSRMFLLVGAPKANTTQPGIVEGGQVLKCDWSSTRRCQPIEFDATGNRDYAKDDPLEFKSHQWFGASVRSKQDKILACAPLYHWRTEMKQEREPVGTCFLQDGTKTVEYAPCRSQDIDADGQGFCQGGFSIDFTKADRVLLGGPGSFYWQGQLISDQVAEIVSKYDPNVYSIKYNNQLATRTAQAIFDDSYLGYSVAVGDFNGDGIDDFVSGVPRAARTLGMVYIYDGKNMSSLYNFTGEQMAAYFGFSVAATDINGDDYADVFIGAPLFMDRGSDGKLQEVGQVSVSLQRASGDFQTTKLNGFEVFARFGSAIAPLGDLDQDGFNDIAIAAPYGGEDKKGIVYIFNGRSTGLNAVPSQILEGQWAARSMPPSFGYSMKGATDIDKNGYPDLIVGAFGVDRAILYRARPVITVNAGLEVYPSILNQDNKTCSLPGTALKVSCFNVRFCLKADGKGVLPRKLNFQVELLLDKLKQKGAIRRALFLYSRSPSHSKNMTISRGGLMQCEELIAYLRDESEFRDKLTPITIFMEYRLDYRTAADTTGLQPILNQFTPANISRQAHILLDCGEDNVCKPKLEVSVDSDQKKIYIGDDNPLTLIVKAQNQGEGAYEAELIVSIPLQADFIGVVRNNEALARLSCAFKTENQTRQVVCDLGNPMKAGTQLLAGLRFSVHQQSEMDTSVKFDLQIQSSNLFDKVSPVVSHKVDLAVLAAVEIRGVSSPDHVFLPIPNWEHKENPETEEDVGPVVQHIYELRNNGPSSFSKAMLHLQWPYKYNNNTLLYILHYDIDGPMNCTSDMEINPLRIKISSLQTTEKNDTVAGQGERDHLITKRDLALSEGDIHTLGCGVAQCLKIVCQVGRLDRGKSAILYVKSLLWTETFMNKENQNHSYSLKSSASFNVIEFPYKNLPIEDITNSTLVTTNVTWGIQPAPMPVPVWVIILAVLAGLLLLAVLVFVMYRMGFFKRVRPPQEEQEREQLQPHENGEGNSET
UniProt P08648: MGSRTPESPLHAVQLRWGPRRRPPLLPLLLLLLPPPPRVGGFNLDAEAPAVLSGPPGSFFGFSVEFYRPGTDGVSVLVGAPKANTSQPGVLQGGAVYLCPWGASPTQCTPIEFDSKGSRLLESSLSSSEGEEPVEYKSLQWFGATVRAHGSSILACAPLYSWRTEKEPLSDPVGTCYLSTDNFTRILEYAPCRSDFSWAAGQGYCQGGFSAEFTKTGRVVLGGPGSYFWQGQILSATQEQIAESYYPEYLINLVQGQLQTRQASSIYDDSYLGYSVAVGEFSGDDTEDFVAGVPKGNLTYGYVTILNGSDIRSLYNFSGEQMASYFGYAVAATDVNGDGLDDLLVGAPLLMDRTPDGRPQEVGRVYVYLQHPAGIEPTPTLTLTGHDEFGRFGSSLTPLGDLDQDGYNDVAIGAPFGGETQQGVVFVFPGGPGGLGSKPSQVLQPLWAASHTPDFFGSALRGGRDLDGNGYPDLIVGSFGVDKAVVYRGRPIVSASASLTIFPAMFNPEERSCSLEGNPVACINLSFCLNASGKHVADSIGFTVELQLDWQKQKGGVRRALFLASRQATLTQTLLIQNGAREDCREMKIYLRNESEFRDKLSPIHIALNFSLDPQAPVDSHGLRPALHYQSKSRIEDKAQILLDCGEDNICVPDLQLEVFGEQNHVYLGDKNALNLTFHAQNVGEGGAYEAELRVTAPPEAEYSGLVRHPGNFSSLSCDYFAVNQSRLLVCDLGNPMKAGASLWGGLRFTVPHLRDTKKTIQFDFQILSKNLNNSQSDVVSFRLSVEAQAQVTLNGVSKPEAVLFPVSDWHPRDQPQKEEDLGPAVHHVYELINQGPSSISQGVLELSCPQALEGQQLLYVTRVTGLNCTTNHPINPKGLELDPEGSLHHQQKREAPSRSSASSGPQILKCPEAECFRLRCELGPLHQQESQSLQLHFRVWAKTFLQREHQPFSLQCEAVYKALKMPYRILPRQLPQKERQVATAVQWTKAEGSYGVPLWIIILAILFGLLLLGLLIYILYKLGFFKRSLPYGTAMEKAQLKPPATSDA

In patent US20180339024A1, “PEPTIDES WITH ANTI-ANGIOGENIC, ANTI-LYMPHANGIOGENIC, AND ANTI-EDEMIC PROPERTIES AND NANOPARTICLE FORMULATIONS” (Asclepix Therapeutics, LLC, priority 2015, published 2018) one finds binding data, which are given here for one molecule.

These are yes or no findings as the source states them, for the method shown. Some entries that bind do so weakly or less than the wild type.

B1: P07 (peptide)
peptide: LRRFSTAPFAFIDINDVINF
modifications: amine at the N-terminus and an amide at the C-terminus
For the molecule B1, the binding result with integrin αVβ3 and in the assay with integrin α5β1 was “binds” in each case.
